# Measured values published in PubChem BioAssay AID330 (DTP/NCI, 2004).
# The list shows only some results of the screen, not a fair sample: it gathers tests that were run many times, whatever their T/C, doses with no T/C, and many T/C values between a quarter and a half above the control. Other doses and runs of a compound stand elsewhere. T/C is the treated group as % of the vehicle group. Some entries give survivors of the animals treated and no T/C: the source files T/C as zero there, which appears to mark a toxic dose or a test without result, not a measured value. Some survivor counts are full or nearly so, which does not show that the dose was tolerated: survival well below the control is almost never listed, so the zero probably covers shortened survival too. Survivors were counted at the toxicity check, usually on the fifth day, unless a day is given; later deaths do not show. Schedules are NCI's codes, read here as Q, the interval in days (D) or hours (H), X, the number of doses. Where survival is the endpoint, this PubChem deposit counts one and a half times the control or more as active, and values a quarter to a half above the control carry no call in these data; other NCI protocols may use other cut-offs. Signs of the kind (2×) give the number of equal values in this list. Some T/C values are followed by the survivors on the day toxicity was checked, most often the fifth; without a count, all were alive then. Some entries hold several experiments; their values stand side by side, smallest first.
# Test system: P388 leukemia ip, CD2F1 mice, survival T/C
# Assay: NCI In Vivo Anticancer Drug Screen. Data for tumor model P388 Leukemia (intraperitoneal) in CD2F1 (CDF1) mice
# Conditions: T/C endpoint: median survival time, higher T/C = longer survival
# [1] = dose: 10.0 mg/kg/injection, schedule: Q01DX009 (ip), vehicle: saline + alcohol
smiles,measurement,setting,value
O=NN(CCCl)C(=O)NCCCl,T/C,"dose: 1.88 mg/kg/injection, schedule: Q04DX003 (ip), vehicle: saline",145 % of control
same,T/C,"dose: 2.0 mg/kg/injection, schedule: Q01DX001 (ip), vehicle: saline with Tween-80",125 % of control
same,T/C,"dose: 2.0 mg/kg/injection, schedule: Q01DX005 (ip), vehicle: saline + alcohol",130 % of control
same,T/C,"dose: 2.0 mg/kg/injection, schedule: Q01DX009 (ip), vehicle: Klucel (hydroxypropylcellulose) (HPC)","125, 161, 162, 166 % of control"
same,T/C,"dose: 2.0 mg/kg/injection, schedule: Q01DX009 (ip), vehicle: saline + alcohol, evaluated on day 30","161, 164, 167, 173, 194 % of control"
same,T/C,"dose: 2.0 mg/kg/injection, schedule: Q01DX009 (ip), vehicle: saline + alcohol, evaluated on day 35",148 % of control
same,T/C,"dose: 2.0 mg/kg/injection, schedule: Q01DX009 (ip), vehicle: saline + alcohol, evaluated on day 45",177 % of control
same,T/C,"dose: 2.0 mg/kg/injection, schedule: Q01DX009 (ip), vehicle: saline, evaluated on day 30","157, 163 [5 of 6 alive], 167, 172, 178, 179, 182, 186, 187, 210, 271, 274 % of control"
same,T/C,"dose: 2.0 mg/kg/injection, schedule: Q01DX009 (ip), vehicle: saline, evaluated on day 60","145, 159, 160, 162 % of control"
same,T/C,"dose: 2.5 mg/kg/injection, schedule: Q04DX003 (ip), vehicle: saline + alcohol",148 % of control
same,T/C,"dose: 3.3 mg/kg/injection, schedule: Q01DX009 (ip), vehicle: Klucel (hydroxypropylcellulose) (HPC)",133 % of control
same,T/C,"dose: 3.3 mg/kg/injection, schedule: Q01DX009 (ip), vehicle: saline + alcohol",126 % of control
same,T/C,"dose: 3.75 mg/kg/injection, schedule: Q01DX001 (iv), vehicle: saline + alcohol",125 % of control
same,T/C,"dose: 3.89 mg/kg/injection, schedule: Q04DX002 (ip), vehicle: saline + alcohol",148 % of control
same,T/C,"dose: 4.0 mg/kg/injection, schedule: Q01DX001 (ip), vehicle: Klucel (hydroxypropylcellulose) (HPC)",142 % of control
same,T/C,"dose: 4.0 mg/kg/injection, schedule: Q01DX001 (ip), vehicle: saline + alcohol",130 % of control
same,T/C,"dose: 4.0 mg/kg/injection, schedule: Q01DX001 (ip), vehicle: saline with Tween-80, evaluated on day 5",153 and 164 % of control
same,T/C,"dose: 4.0 mg/kg/injection, schedule: Q01DX001 (ip), vehicle: saline with Tween-80, evaluated on day 30",144 % of control
same,T/C,"dose: 4.0 mg/kg/injection, schedule: Q01DX001 (ip), vehicle: saline with Tween-80, evaluated on day 60",145 % of control
same,T/C,"dose: 4.0 mg/kg/injection, schedule: Q01DX001 (ip), vehicle: suspension in saline",132 % of control
same,T/C,"dose: 4.0 mg/kg/injection, schedule: Q01DX001 (ip), vehicle: water",147 % of control
same,T/C,"dose: 4.0 mg/kg/injection, schedule: Q01DX009 (ip), vehicle: Klucel (hydroxypropylcellulose) (HPC)","157 [5 of 6 alive], 193, 209, 211 % of control"
same,T/C,"dose: 4.0 mg/kg/injection, schedule: Q01DX009 (ip), vehicle: saline + alcohol, evaluated on day 30","184, 201, 214, 230, 252 % of control"
same,T/C,"dose: 4.0 mg/kg/injection, schedule: Q01DX009 (ip), vehicle: saline + alcohol, evaluated on day 35",188 % of control
same,T/C,"dose: 4.0 mg/kg/injection, schedule: Q01DX009 (ip), vehicle: saline + alcohol, evaluated on day 45",231 % of control
same,T/C,"dose: 4.0 mg/kg/injection, schedule: Q01DX009 (ip), vehicle: saline, evaluated on day 30","165, 193, 221, 232, 239, 246, 250, 252, 266, 290, 315 [5 of 6 alive], 322 % of control"
same,T/C,"dose: 4.0 mg/kg/injection, schedule: Q01DX009 (ip), vehicle: saline, evaluated on day 60","209, 220, 252, 301 % of control"
same,T/C,"dose: 5.0 mg/kg/injection, schedule: Q01DX001 (ip), vehicle: saline + alcohol",130 and 132 % of control
same,T/C,"dose: 7.5 mg/kg/injection, schedule: Q01DX005 (ip), vehicle: saline + alcohol, evaluated on day 30",222 % of control
same,T/C,"dose: 7.5 mg/kg/injection, schedule: Q01DX005 (ip), vehicle: saline + alcohol, evaluated on day 35",300 % of control
same,T/C,"dose: 7.5 mg/kg/injection, schedule: Q01DX005 (ip), vehicle: saline + alcohol, evaluated on day 60",221 and 241 % of control
same,T/C,"dose: 7.5 mg/kg/injection, schedule: Q01DX009 (ip), vehicle: saline + alcohol, evaluated on day 30",277 % of control
same,T/C,"dose: 7.5 mg/kg/injection, schedule: Q01DX009 (ip), vehicle: saline + alcohol, evaluated on day 35",288 % of control
same,T/C,"dose: 7.5 mg/kg/injection, schedule: Q01DX009 (ip), vehicle: saline + alcohol, evaluated on day 60",255 and 293 % of control
same,T/C,"dose: 8.0 mg/kg/injection, schedule: Q01DX001 (ip), vehicle: saline + alcohol, evaluated on day 9",112 and 183 % of control
same,T/C,"dose: 8.0 mg/kg/injection, schedule: Q01DX001 (ip), vehicle: saline + alcohol, evaluated on day 30",144 and 153 % of control
same,T/C,"dose: 8.0 mg/kg/injection, schedule: Q01DX001 (ip), vehicle: saline with Tween-80, evaluated on day 5",170 and 180 % of control
same,T/C,"dose: 8.0 mg/kg/injection, schedule: Q01DX001 (ip), vehicle: saline with Tween-80, evaluated on day 30",183 % of control
same,T/C,"dose: 8.0 mg/kg/injection, schedule: Q01DX001 (ip), vehicle: saline with Tween-80, evaluated on day 60",184 % of control
same,T/C,"dose: 8.0 mg/kg/injection, schedule: Q01DX009 (ip), vehicle: Klucel (hydroxypropylcellulose) (HPC)","222, 234, 253, 277 % of control"
same,T/C,"dose: 8.0 mg/kg/injection, schedule: Q01DX009 (ip), vehicle: saline + alcohol, evaluated on day 30","119, 129, 143, 214, 245 % of control"
same,T/C,"dose: 8.0 mg/kg/injection, schedule: Q01DX009 (ip), vehicle: saline + alcohol, evaluated on day 35",326 % of control
same,T/C,"dose: 8.0 mg/kg/injection, schedule: Q01DX009 (ip), vehicle: saline + alcohol, evaluated on day 45",224 % of control
same,T/C,"dose: 8.0 mg/kg/injection, schedule: Q01DX009 (ip), vehicle: saline, evaluated on day 30","92, 123, 130, 219, 230, 245, 250, 270 (2×), 288, 291, 315 % of control"
same,T/C,"dose: 8.0 mg/kg/injection, schedule: Q01DX009 (ip), vehicle: saline, evaluated on day 60","223, 341, 519, 535 % of control"
same,T/C,"dose: 10.0 mg/kg/injection, schedule: Q01DX001 (ip), vehicle: saline + alcohol, evaluated on day 30",144 and 168 % of control
same,T/C,"dose: 10.0 mg/kg/injection, schedule: Q01DX001 (ip), vehicle: saline + alcohol, evaluated on day 60",170 and 202 % of control
same,T/C,"dose: 10.0 mg/kg/injection, schedule: Q01DX005 (ip), vehicle: saline + alcohol, evaluated on day 30","89, 126, 197, 203 (2×), 212 [5 of 6 alive], 218, 240, 254, 260, 265, 270, 273, 274, 285 (2×), 294, 297 (2×), 300 (4×), 309 % of control"
same,T/C,"dose: 10.0 mg/kg/injection, schedule: Q01DX005 (ip), vehicle: saline + alcohol, evaluated on day 60",555 % of control
same,survivor count,"dose: 10.0 mg/kg/injection, schedule: Q01DX005 (ip), vehicle: saline + alcohol",6 of 6
same,T/C,[1],"86, 91, 100, 126, 176, 188, 198, 228, 238, 265, 276 (2×), 285, 290, 294, 297 (2×), 300 (4×), 303, 309 % of control"
same,survivor count,[1],6 of 6
same,T/C,"dose: 15.0 mg/kg/injection, schedule: Q01DX005 (ip), vehicle: saline + alcohol, evaluated on day 30","130, 156 [5 of 6 alive], 202, 203, 220, 238, 265, 268, 270, 277, 283, 285 (2×), 294 (2×), 297 (3×), 300 (4×), 309 % of control"
same,T/C,"dose: 15.0 mg/kg/injection, schedule: Q01DX005 (ip), vehicle: saline + alcohol, evaluated on day 35",350 % of control
same,T/C,"dose: 15.0 mg/kg/injection, schedule: Q01DX005 (ip), vehicle: saline + alcohol, evaluated on day 60",109 and 550 % of control
same,T/C,"dose: 15.0 mg/kg/injection, schedule: Q01DX009 (ip), vehicle: saline + alcohol, evaluated on day 30","86, 87, 101, 110, 116, 125, 126, 128, 131, 132, 140, 158, 171, 172, 191, 194, 285, 294, 297, 300 % of control (3×)"
same,T/C,"dose: 15.0 mg/kg/injection, schedule: Q01DX009 (ip), vehicle: saline + alcohol, evaluated on day 35",114 % of control
same,T/C,"dose: 15.0 mg/kg/injection, schedule: Q01DX009 (ip), vehicle: saline + alcohol, evaluated on day 60",106 and 112 % of control
same,T/C,"dose: 16.0 mg/kg/injection, schedule: Q01DX001 (ip), vehicle: saline + alcohol, evaluated on day 9",155 % of control (2×)
